From patent publication US20160220689A1 (priority 2013, published 2016)

Experiment: general procedure: solution-phase peptide synthesis
Conditions: coupling step
“Boc-Gly-Leu-Phe-Gly-amino diethylmalonate” gave a step yield of 66%.
“Boc-Pro-Val-Gly-Leu-Ile-Gly-amino diethylmalonate” showed a step yield of 53%.

Same assay, conditions: late stage modification step
In the case of “H2N-Gly-Leu-Phe-Gly-amino diethylmalonate trifluoroacetate”, the step yield is reported as 94%.
For “HO-Succ-Pro-Val-Gly-Leu-Ile-Gly-amino diethylmalonate”, the step yield was 94%.
For “tert-BuO-Succ-Gly-Leu-Phe-Gly-amino diethylmalonate”, the step yield was 65%.
Work on “tert-BuO-Succ-Pro-Val-Gly-Leu-Ile-Gly-amino diethylmalonate” yielded a step yield of 61%.
